Earlier results in patent US20260297035A1, “PROTEIN KINASE INHIBITORS AND USES THEREOF” (DELiver Therapeutics, Inc., priority 2023, published 2026).

Legend:
ABL1 G250E = settings: control inhibitor; Tyr 02; ATP 5 μM; cited from earlier work
ABL1 F317I = settings: control inhibitor; Tyr 02; ATP 10 μM; cited from earlier work
RET-S891A = settings: control inhibitor; Tyr 06; ATP 10 uM; cited from earlier work
DDR2-N456S = settings: control inhibitor; Tracer 236 at 1 nM; cited from earlier work
NTRK3 (TRKC) = settings: control inhibitor; Tyr 01; ATP 50 uM; cited from earlier work
ABL1 Y253F = settings: control inhibitor; Tyr 02; ATP 10 μM; cited from earlier work
ABL1 E255K = settings: control inhibitor; Tyr 02; ATP 5 μM; cited from earlier work

In the case of `CN[C@@H]1C[C@H]2O[C@@](C)([C@@H]1OC)n1c3ccccc3c3c4c(c5c6ccccc6n2c5c31)C(=O)NC4` [Staurosporine], the IC50 (ABL1 G250E) is given as 29.9 nM, the IC50 (ABL1 F317I) is given as 205 nM and the IC50 (RET-S891A) is given as 0.721 nM. For the same molecule, the IC50 (DDR2-N456S) was 0.134 nM, the IC50 (NTRK3 (TRKC)) was 1.94 nM and the IC50 (ABL1 Y253F) was 44.1 nM. The IC50 (ABL1 E255K) was 71.1 nM.
